According to paper PMC10539501 (Nature Communications, 2023):

Key:
in vitro = in vitro ADME, human; settings: human
Caco-2 cells = experiment: in vitro; format: in vitro ADME, human; settings: Caco-2
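Also: Caco-2 monolayers used 21 days after seeding in HBSS-HEPES buffer with 1% DMSO, donor and acceptor levels quantified by LC-MS/MS, TEER checked before and after.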

CC(C)NCC(O)COc1ccc(CC(N)=O)cc1 (centres unmarked) [Atenolol, reference compound]
Papp A→B (in vitro; Caco-2, Papp A-B avg): 0.392 ×10⁻⁶ cm/s
Papp B→A (in vitro; Caco-2, Papp B-A avg): 1.36 ×10⁻⁶ cm/s
Papp A-B avg (second block) (Caco-2 cells): 0.39 ×10⁻⁶ cm/s
Papp A-B set 1 (second block) (Caco-2 cells): 0.26 ×10⁻⁶ cm/s
Papp A-B set 2 (second block) (Caco-2 cells): 0.52 ×10⁻⁶ cm/s
Papp B-A avg (second block) (Caco-2 cells): 1.4 ×10⁻⁶ cm/s
Papp B-A set 1 (second block) (Caco-2 cells): 1.3 ×10⁻⁶ cm/s
Papp B-A set 2 (second block) (Caco-2 cells): 1.4 ×10⁻⁶ cm/s
